Source: PubChem BioAssay AID256 (DTP/NCI, 2004)
The list shows only some results of the screen, not a fair sample: it gathers tests that were run many times, whatever their T/C, doses with no T/C, and many T/C values between a quarter and a half above the control. Other doses and runs of a compound stand elsewhere. T/C is the treated group as % of the vehicle group. Some entries give survivors of the animals treated and no T/C: the source files T/C as zero there, which appears to mark a toxic dose or a test without result, not a measured value. Some survivor counts are full or nearly so, which does not show that the dose was tolerated: the source hardly ever lists a survival T/C far under the control, and the zero likely stands for such cases as well. Counts of survivors are from the toxicity check (mostly the fifth day) where no day follows; animals may have died later. Schedule codes are those of the source, read here as Q, the interval in days (D) or hours (H), X, the number of doses. Some doses were run more than once; the results are listed from low to high. Some schedule codes hold Z or #, which are not explained here. Where survival is the endpoint, the PubChem record calls one and a half times the control and up active, and a quarter to a half above the control has no call in these data; cut-offs in other NCI protocols can differ.

Tested on: CD2F1 mice, L1210 leukemia ip, survival T/C
Experiment: NCI In Vivo Anticancer Drug Screen. Data for tumor model L1210 Leukemia (intraperitoneal) in CD2F1 (CDF1) mice
Conditions: higher T/C = longer survival
Method in brief: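 Activity against a transplanted murine tumor was judged by comparing the compound group with a vehicle group. The outcome in the treated animals was divided by that in the controls.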

[1] = T/C endpoint: mean survival time, dose: 200.0 mg/kg/injection, schedule: Q01DX009 (ip), vehicle: water
[2] = T/C endpoint: mean survival time, dose: 5.0 mg/kg/injection, schedule: Q01DX009 (ip), vehicle: saline
[3] = T/C endpoint: mean survival time, dose: 400.0 mg/kg/injection, schedule: Q01DX009 (ip), vehicle: saline with Tween-80

Q: How did the survivor count (T/C endpoint: mean survival time, dose: 200.0 mg/kg/injection, schedule: Q04DX003 (ip), vehicle: saline) turn out when `OC1C2CCN(CC2)C1CN1CC=C(c2ccccc2)CC1` (stereo unspecified) was run?
A: 1 of 6

Q: And the survivor count (T/C endpoint: mean survival time, dose: 400.0 mg/kg/injection, schedule: Q04DX003 (ip), vehicle: saline)?
A: 0 of 6

Q: What does the source list for `O=C([O][Bi]([c]1ccccc1)[c]1ccccc1)c1ccccc1`?
A: survivor count (T/C endpoint: median survival time, dose: 50.0 mg/kg/injection, schedule: Q01DX009 (ip), vehicle: Klucel (hydroxypropylcellulose) (HPC)): 2 of 6; survivor count (T/C endpoint: median survival time, dose: 100.0 mg/kg/injection, schedule: Q01DX009 (ip), vehicle: Klucel (hydroxypropylcellulose) (HPC)): 0 of 6

Q: `Cc1c[n+]([O-])ccc1Br` was tested. Which survivor count [1] did it give?
A: 0 of 6

Q: What about the survivor count (T/C endpoint: mean survival time, dose: 400.0 mg/kg/injection, schedule: Q01DX009 (ip), vehicle: water) of the same molecule?
A: 0 of 6

Q: `Cc1ncc(CO)c(C)n1` was tested. Which survivor count (T/C endpoint: mean survival time, dose: 20.0 mg/kg/injection, schedule: Q01DX001 (ip), vehicle: saline with Tween-80) did it give?
A: 0 of 6

Q: What about the survivor count (T/C endpoint: mean survival time, dose: 40.0 mg/kg/injection, schedule: Q01DX001 (ip), vehicle: saline with Tween-80) of the same molecule?
A: 0 of 6

Q: What about the survivor count (T/C endpoint: mean survival time, dose: 80.0 mg/kg/injection, schedule: Q01DX001 (ip), vehicle: saline with Tween-80) of the same molecule?
A: 0 of 6

Q: Which results are given for `O=c1c(O)c(O)c1=O.[NH2-].[NH2-].[NH2-].[NH2-].[NH2-].[Ru+5]`?
A: T/C (T/C endpoint: median survival time, dose: 12.5 mg/kg/injection, schedule: Q01DX005 (ip), vehicle: saline): 130 % of control; T/C (T/C endpoint: median survival time, dose: 25.0 mg/kg/injection, schedule: Q01DX005 (ip), vehicle: suspension in saline): 130 % of control; survivor count (T/C endpoint: median survival time, dose: 50.0 mg/kg/injection, schedule: Q01DX005 (ip), vehicle: saline): 0 of 6; survivor count (T/C endpoint: median survival time, dose: 50.0 mg/kg/injection, schedule: Q01DX005 (ip), vehicle: suspension in saline): 0 of 6

Q: With `COc1cc(C=Nc2cc(Cl)c(O)c(Cl)c2)ccc1N(CCCl)CCCl` as the molecule, how does the survivor count (T/C endpoint: mean survival time, dose: 50.0 mg/kg/injection, schedule: Q01DX001 (ip), vehicle: carboxymethylcellulose (CMC)) read?
A: 1 of 4

Q: `Nc1nc(NCCc2ccccc2)c2ncn(C3OC(CO)C(O)C3O)c2n1` (stereo unspecified) was tested. Which survivor count (T/C endpoint: mean survival time, dose: 200.0 mg/kg/injection, schedule: Q01DX005 (ip), vehicle: other) did it give?
A: 2 of 6

Q: What does the source list for `CN(Cc1cnc2nc(N)nc(N)c2n1)c1ccc(C(=O)NC(CCC(=O)NC(CC(=O)O)C(=O)O)C(=O)O)cc1` (stereo unspecified)?
A: T/C (T/C endpoint: mean survival time, dose: 1.0 mg/kg/injection, schedule: Q01DX009 (ip), vehicle: sodium bicarbonate): 130 % of control; T/C (T/C endpoint: mean survival time, dose: 2.0 mg/kg/injection, schedule: Q01DX009 (ip), vehicle: sodium bicarbonate): 137 % of control; survivor count (T/C endpoint: mean survival time, dose: 25.0 mg/kg/injection, schedule: Q01DX009 (ip), vehicle: sodium bicarbonate): 6 of 6; survivor count (T/C endpoint: mean survival time, dose: 50.0 mg/kg/injection, schedule: Q01DX009 (ip), vehicle: sodium bicarbonate): 5 of 6

Q: `CC1(C)OCC(CO)(Nc2nc(N3CC3)nc(N3CC3)n2)CO1` was tested. Which T/C (T/C endpoint: mean survival time, dose: 0.62 mg/kg/injection, schedule: Q01DX009 (ip), vehicle: saline) did it give?
A: 132 % of control

Q: What about the T/C (T/C endpoint: mean survival time, dose: 1.25 mg/kg/injection, schedule: Q01DX009 (ip), vehicle: saline) of the same molecule?
A: 131 and 137 % of control

Q: And the T/C [2]?
A: 143, 158, 247 % of control

Q: What about the survivor count [2] of the same molecule?
A: 6 of 6

Q: And the survivor count (T/C endpoint: mean survival time, dose: 10.0 mg/kg/injection, schedule: Q01DX009 (ip), vehicle: saline)?
A: 10 of 10 and 6 of 6

Q: What about the survivor count (T/C endpoint: mean survival time, dose: 20.0 mg/kg/injection, schedule: Q01DX009 (ip), vehicle: saline) of the same molecule?
A: 7 of 10

Q: And the survivor count (T/C endpoint: mean survival time, dose: 40.0 mg/kg/injection, schedule: Q01DX009 (ip), vehicle: saline)?
A: 3 of 10

Q: How did the survivor count [3] turn out when `Cn1c(CC(O)(C(F)(F)Cl)C(F)(F)Cl)cc(=O)n1-c1ccccc1` was run?
A: 3 of 6

Q: What does the source list for `OCC1OC(n2cnc3c(NO)nc(NO)nc32)C(O)C1O` (stereo unspecified)?
A: T/C (T/C endpoint: median survival time, dose: 12.0 mg/kg/injection, schedule: Q01DX009 (ip), vehicle: saline): 130 % of control; T/C (T/C endpoint: median survival time, dose: 24.0 mg/kg/injection, schedule: Q01DX009 (ip), vehicle: saline): 146 % of control

Q: How did the T/C (T/C endpoint: mean survival time, dose: 50.0 mg/kg/injection, schedule: Q01DX009 (ip), vehicle: saline with Tween-80) turn out when `CN1CCC(CN2c3ccccc3Sc3ccccc32)C1` (stereo unspecified) was run?
A: 133 % of control

Q: What about the survivor count (T/C endpoint: mean survival time, dose: 100.0 mg/kg/injection, schedule: Q01DX009 (ip), vehicle: saline with Tween-80) of the same molecule?
A: 0 of 3 and 1 of 6

Q: And the survivor count (T/C endpoint: mean survival time, dose: 200.0 mg/kg/injection, schedule: Q01DX009 (ip), vehicle: saline with Tween-80)?
A: 0 of 3

Q: Which T/C (T/C endpoint: mean survival time, dose: 200.0 mg/kg/injection, schedule: Q01DX001 (ip), vehicle: carboxymethylcellulose (CMC)) does the source give for `CCOC(=O)c1cn[nH]c1/N=N/N(C)C` here?
A: 125 % of control

Q: What about the T/C (T/C endpoint: mean survival time, dose: 400.0 mg/kg/injection, schedule: Q01DX001 (ip), vehicle: carboxymethylcellulose (CMC)) of the same molecule?
A: 128 % of control

Q: With `C=CCN(CC=C)Cc1cccc(N(CCCl)CCCl)c1` (tested in a mixture with another compound) as the molecule, how does the survivor count (T/C endpoint: mean survival time, dose: 200.0 mg/kg/injection, schedule: Q01DX009 (ip), vehicle: Klucel (hydroxypropylcellulose) (HPC)) read?
A: 3 of 3

Q: What does the source list for `NC(=O)c1[nH]cnc1/N=N/N(CCF)CCF`?
A: T/C (T/C endpoint: mean survival time, dose: 13.0 mg/kg/injection, schedule: Q01DX001 (ip), vehicle: other): 137 % of control; T/C (T/C endpoint: mean survival time, dose: 20.0 mg/kg/injection, schedule: Q01DX001 (ip), vehicle: other): 140 % of control

Q: Which survivor count (T/C endpoint: mean survival time, dose: 12.5 mg/kg/injection, schedule: Q01DX009 (ip), vehicle: water) does the source give for `O=C(CCN1CCCCC1)c1ccc(C(F)(F)F)cc1` here?
A: 6 of 6

Q: What about the survivor count (T/C endpoint: mean survival time, dose: 25.0 mg/kg/injection, schedule: Q01DX009 (ip), vehicle: saline) of the same molecule?
A: 0 of 6

Q: And the survivor count (T/C endpoint: mean survival time, dose: 25.0 mg/kg/injection, schedule: Q01DX009 (ip), vehicle: water)?
A: 0 of 6

Q: And the survivor count (T/C endpoint: mean survival time, dose: 50.0 mg/kg/injection, schedule: Q01DX009 (ip), vehicle: saline)?
A: 0 of 6

Q: What about the survivor count (T/C endpoint: mean survival time, dose: 100.0 mg/kg/injection, schedule: Q01DX009 (ip), vehicle: saline) of the same molecule?
A: 0 of 6

Q: What about the survivor count (T/C endpoint: mean survival time, dose: 200.0 mg/kg/injection, schedule: Q01DX009 (ip), vehicle: saline) of the same molecule?
A: 0 of 6

Q: Which survivor count [3] does the source give for `C#CC(C)(O)CCCCCC` (stereo unspecified) here?
A: 4 of 6

Q: How did the survivor count (T/C endpoint: mean survival time, dose: 15.0 mg/kg/injection, schedule: Q01DX Z (ip), vehicle: saline) turn out when `COc1cc2c(c(OC)c1OC)-c1ccc(OC)c(=O)cc1C(=O)CC2` was run?
A: 6 of 6

Q: With `Cn1c(=O)c2[nH]c(Cl)nc2n(C)c1=O` as the molecule, how does the survivor count (T/C endpoint: mean survival time, dose: 200.0 mg/kg/injection, schedule: Q01DX005 (ip), vehicle: water) read?
A: 1 of 6

Q: With `CO[C@]12[C@@H](COC(N)=O)C3=C(C(=O)C(C)=C(NCC4CCCO4)C3=O)N1C[C@@H]1[C@H]2N1C` (stereo partly specified) as the molecule, how does the T/C (T/C endpoint: mean survival time, dose: 50.0 mg/kg/injection, schedule: Q01DX001 (ip), vehicle: distilled water + Tween-80) read?
A: 146 % of control

Q: What about the T/C (T/C endpoint: mean survival time, dose: 96.0 mg/kg/injection, schedule: Q01DX001 (ip), vehicle: distilled water + Tween-80) of the same molecule?
A: 132 % of control

Q: What about the survivor count (T/C endpoint: mean survival time, dose: 200.0 mg/kg/injection, schedule: Q01DX001 (ip), vehicle: distilled water + Tween-80) of the same molecule?
A: 1 of 6

Q: `CC(C)(CCC(C)(C)NCCCN)NCCCN` was tested. Which survivor count (T/C endpoint: mean survival time, dose: 100.0 mg/kg/injection, schedule: Q01DX009 (ip), vehicle: water) did it give?
A: 6 of 6

Q: What about the survivor count [1] of the same molecule?
A: 0 of 6

Q: How did the survivor count [3] turn out when `CCCCCCCC/C=C\CCCCCCCCNC(C)=O` was run?
A: 2 of 6

Q: For `CCO[Si](OCC)OCC`, which survivor count (T/C endpoint: mean survival time, dose: 150.0 mg/kg/injection, schedule: Q01DX001 (ip), vehicle: saline) is on record?
A: 1 of 6

Q: And the survivor count (T/C endpoint: mean survival time, dose: 300.0 mg/kg/injection, schedule: Q01DX001 (ip), vehicle: saline)?
A: 0 of 6

Q: Which survivor count (T/C endpoint: mean survival time, dose: 400.0 mg/kg/injection, schedule: Q01DX001 (ip), vehicle: saline with Tween-80) does the source give for `Nc1ccc(S(=O)(=O)S(=O)(=O)c2ccc(N)cc2)cc1` here?
A: 6 of 6

Q: For `NCC(Cl)c1ccccc1` (stereo unspecified), which survivor count [3] is on record?
A: 1 of 6

Q: How did the survivor count (T/C endpoint: mean survival time, dose: 150.0 mg/kg/injection, schedule: Q01DX009 (ip), vehicle: saline) turn out when `CC[Si](CC)(CC)c1ccc(CCNCCS)s1` was run?
A: 1 of 6

Q: For `CCCCCCCCCCCCCCCCCC[N+](CC)(CC)CC`, which survivor count (T/C endpoint: mean survival time, dose: 6.0 mg/kg/injection, schedule: Q01DX001 (ip), vehicle: Klucel (hydroxypropylcellulose) (HPC)) is on record?
A: 6 of 6

Q: With `CCOC(OCC)c1nc(N)nc(N)c1-c1ccc(Cl)c(Cl)c1` as the molecule, how does the T/C (T/C endpoint: mean survival time, dose: 89.0 mg/kg/injection, schedule: Q01DX009 (ip), vehicle: other) read?
A: 131 % of control

Q: For `Cc1cccc(-c2nn[nH]n2)n1`, which survivor count (T/C endpoint: mean survival time, dose: 50.0 mg/kg/injection, schedule: Q01DX001 (ip), vehicle: saline with Tween-80) is on record?
A: 3 of 3

Q: For `O=C(NNC(=O)c1c(F)c(F)c(F)c(F)c1F)c1c(F)c(F)c(F)c(F)c1F`, which survivor count [3] is on record?
A: 1 of 6
